# In PubChem BioAssay AID504444 (National Center for Advancing Translational Sciences (NCATS), 2011):
# Out of some 360,000 compounds screened, about 7,500 (2.1%) were called active. Inconclusive results, whose numbers are uncertain, are shown with a selection of clear calls. Calls follow the shape of the dose curve; as a rule, active = well fitted inhibition curve with a large enough effect; inconclusive = small, poorly fitted or top-dose-only effect, or effect the other way; inactive = flat fitted curve, though single readings scatter. Where the call is inconclusive, the potency comes from a doubtful curve fit.
# Experiment: Nrf2 qHTS screen for inhibitors; also: nearly all actives have a fitted effect of over 60% in size
# Settings: A549 ARE-Fluc reporter, luciferase luminescence, 18-24 h; activity change, negative = inhibition: at 46 µM (top of the series)
# Method in brief: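 In this cell-based qHTS, ARE-driven firefly luciferase in A549 cells reports Nrf2 activity; the luminescent signal after BugLite lysis is the measured value, with a prior CellTiter-Fluor read for cell health.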
# % is scaled to controls: 0 for no effect and ±100 for the full control effect; potency is read from the fitted curve at half-maximal effect.
SMILES,Potency,"activity change, negative = inhibition"
O=C(N/N=C/c1ccccn1)c1cc(C2CC2)[nH]n1,"inconclusive: 5.8 µM [activator, partial curve]",–
CCN1CCN(C(=O)c2ccc3c(c2)N(Cc2c(F)cccc2Cl)C(=O)c2ccccc2S3)CC1,–,inactive: -16%
O=c1c2[nH]c3ccccc3c2ncn1Cc1ccncc1,"inconclusive: 14.6 µM [activator, partial curve, poor fit]",–
CC1CCCCC1NC(=O)NC(=O)COC(=O)C1=NN(c2ccccc2)C(=O)CC1 (centres undefined),–,inactive: -3.54%
COC(=O)c1cccc(-n2sc3ccccc3c2=O)c1,–,inactive: 12.6%
COc1ccccc1NC(=O)C(=O)c1cn(CC(=O)N2CCCC2)c2ccccc12,"inconclusive: 2.06 µM [activator, full curve]",–
CCc1ccc(NC(=O)Nc2ccon2)cc1,"inconclusive: 23.1 µM [activator, partial curve]",–
CC(=O)N1c2ccc(S(=O)(=O)N3CCN(c4cc(Cl)ccc4C)CC3)cc2CC1C (centres undefined),"inconclusive: 29.1 µM [activator, single point]",–
O=C(/C=C/c1cccs1)Nc1ccc(Br)cn1,"inconclusive: 7.31 µM [activator, partial curve]",–
O=C(CSCc1ccco1)N1CCc2ccccc21,"inconclusive: 14.6 µM [activator, partial curve]",–
Cc1ccc(NC(=O)Nc2ccccc2)nc1,"inconclusive: 10.3 µM [activator, partial curve]",–
CC(C)CNC(CC(=O)Nc1cccc([N+](=O)[O-])c1)C(=O)O (centres undefined),–,inactive: -0.306%
Cc1ccc(S(=O)(=O)C(C#N)c2nc3ccccc3nc2N2CCN(C)CC2)cc1C (centres undefined),"inconclusive: 0.92 µM [falling, full curve, poor fit]",–
Cc1ccc(C)c(CN2C(=O)COc3ccc(C(=O)c4ccccc4C(=O)O)cc32)c1,"inconclusive: 29.1 µM [activator, single point]",–
O=C(c1ccco1)N1CCN=C1SCc1cccc(F)c1,"inconclusive: 3.66 µM [falling, full curve]",–
Cc1ccc(-c2noc(CN(C3CCCCC3)S(=O)(=O)c3ccc(F)cc3)n2)cc1,–,inactive: -18.3%
Cc1ccc(-c2nnc(Cc3ccc(Cl)cc3)o2)cc1,"inconclusive: 29.1 µM [falling, single point]",–
COc1ccc(N(/N=C2\Sc3ccccc3C2=O)C(C)=O)cc1,–,inactive: 11%
O=C(Nc1ccc(O)cc1C(=O)O)c1ccc2c(c1)C(=O)N(Cc1ccco1)C2=O,"inconclusive: 23.1 µM [activator, single point]",–
CCOC(=O)C1=C(COC(=O)/C=C/c2ccccc2)NC(=O)NC1C (centres undefined),–,inactive: 2.29%
Cc1ccccc1NC(=O)c1sc2nc3c(c(-c4ccco4)c2c1N)CCC3,–,inactive: -10.4%
c1ccc2sc(N3CCCCC3)nc2c1,"inconclusive: 7.31 µM [activator, partial curve]",–

# An excerpt from above in order of length of the SMILES, largest number first.
SMILES,Potency,"activity change, negative = inhibition"
Cc1ccc(C)c(CN2C(=O)COc3ccc(C(=O)c4ccccc4C(=O)O)cc32)c1,"inconclusive: 29.1 µM [activator, single point]",–
Cc1ccc(-c2noc(CN(C3CCCCC3)S(=O)(=O)c3ccc(F)cc3)n2)cc1,–,inactive: -18.3%
Cc1ccc(S(=O)(=O)C(C#N)c2nc3ccccc3nc2N2CCN(C)CC2)cc1C (centres undefined),"inconclusive: 0.92 µM [falling, full curve, poor fit]",–
CC1CCCCC1NC(=O)NC(=O)COC(=O)C1=NN(c2ccccc2)C(=O)CC1 (centres undefined),–,inactive: -3.54%
COc1ccccc1NC(=O)C(=O)c1cn(CC(=O)N2CCCC2)c2ccccc12,"inconclusive: 2.06 µM [activator, full curve]",–
Cc1ccccc1NC(=O)c1sc2nc3c(c(-c4ccco4)c2c1N)CCC3,–,inactive: -10.4%
Cc1ccc(-c2nnc(Cc3ccc(Cl)cc3)o2)cc1,"inconclusive: 29.1 µM [falling, single point]",–
O=c1c2[nH]c3ccccc3c2ncn1Cc1ccncc1,"inconclusive: 14.6 µM [activator, partial curve, poor fit]",–
CCc1ccc(NC(=O)Nc2ccon2)cc1,"inconclusive: 23.1 µM [activator, partial curve]",–
c1ccc2sc(N3CCCCC3)nc2c1,"inconclusive: 7.31 µM [activator, partial curve]",–

# Following part

SMILES,Potency,"activity change, negative = inhibition"
COc1ccc(OCCOc2ccc(N(C)S(=O)(=O)c3ccccc3)cc2)cc1,–,inactive: -16.6%
CN(CCO)c1ccc(/C=N/Nc2nncc3ccccc23)cc1,"inconclusive: 0.13 µM [activator, full curve]",–
COc1ccc2noc3c2c1C(=O)c1ccccc1-3,"inconclusive: 29.1 µM [falling, single point]",–
O=C(NCCCN1CCCC1=O)c1c(O)nc2ccccn2c1=O,"inconclusive: 25.9 µM [falling, single point]",–
COc1ccc2c(c1)[C@H]1[C@H](CO2)[C@H](c2ccccc2)[C@]2(C)C(=O)Nc3ccc(C)cc3C(=O)N12,"inconclusive: 0.411 µM [activator, full curve]",–
Cc1ccc(C)c(-c2ccc(=O)n(Cc3ccc(F)cc3Cl)n2)c1,inactive,–
COCCn1c(SCC(=O)NCC2CCCO2)nc2c([nH]c3ccccc32)c1=O (centres undefined),"inconclusive: 20.6 µM [falling, single point]",–
CCOC(=O)C1CCCN(C(=O)Cn2ncc3c4ccccc4n(Cc4ccc(F)cc4)c3c2=O)C1 (centres undefined),"inconclusive: 29.1 µM [activator, single point]",–
COc1ccccc1NC(=O)c1sc2nc3n(c(=O)c2c1C)CCC3,"inconclusive: 2.59 µM [activator, partial curve, poor fit]",–
O=S(=O)(c1ccc(F)cc1)N1CCC(N2CCCCCC2)CC1,"inconclusive: 0.731 µM [activator, full curve, poor fit]",–
CC(C)C1Oc2ccccc2N(CC(=O)N(Cc2ccccn2)C2CC2)C1=O (centres undefined),"inconclusive: 0.651 µM [falling, partial curve, poor fit]",–
Cc1ccc(NC(=O)c2ccc3ccccc3n2)cc1S(=O)(=O)N(C)C,"inconclusive: 18.4 µM [activator, partial curve]",–
Cc1ccccc1-n1c(SCc2csc(Nc3ccccc3)n2)nnc1-c1cccnc1,"inconclusive: 29.1 µM [falling, single point]",–
O=C(CSc1ncn[nH]1)N1N=C2/C(=C/c3ccccc3)CCCC2C1c1ccccc1 (centres undefined),"inconclusive: 20.6 µM [falling, partial curve, poor fit]",–
CCc1c(C(=O)Nc2ccncc2)csc1C,"inconclusive: 18.4 µM [falling, partial curve]",–
COc1cccc(NS(=O)(=O)NC(=O)c2c[nH]c3ccccc23)c1,"inconclusive: 16.4 µM [activator, single point]",–
O=C(N/N=C1\CCSC1)c1cc(Cl)ccc1O,"inconclusive: 20.6 µM [activator, single point]",–
Cc1ccccc1-c1noc(-c2cccs2)n1,"inconclusive: 23.1 µM [activator, partial curve]",–
O=C(/C=C/Nc1ccc(F)c(Cl)c1)c1ccco1,"inconclusive: 6.51 µM [activator, partial curve]",–
Cc1cc(C)c2c(C)nn(-c3ccccc3)c2n1,–,inactive: 18.7%
COc1cccc(/C=N/NC(=O)CNC(=O)c2ccncc2)c1O,"inconclusive: 2.31 µM [falling, partial curve, poor fit]",–
CCOc1ccc(C(=O)Nc2nnc(C)s2)cc1OCC,"inconclusive: 29.1 µM [falling, single point]",–
